According to doi:10.1101/605923:
Where two headings read alike, the source gives them in different places. No constants are given. Whether binding was seen depends on the method and setting. For some of these results: Binding seen in cells or lysates may run through a third protein. Some entries that bind do so weakly or less than the wild type. Where a sequence is shown, tags or fusion partners need not be part of it. Blank lines part the entries; values can stand above or below the molecule they belong to.

What was measured:
[1] = target: T1, RLP44, split-ubiquitin fusion in yeast (Arabidopsis) (UniProt Q9M2Y3); test: two-hybrid
T1 sequence: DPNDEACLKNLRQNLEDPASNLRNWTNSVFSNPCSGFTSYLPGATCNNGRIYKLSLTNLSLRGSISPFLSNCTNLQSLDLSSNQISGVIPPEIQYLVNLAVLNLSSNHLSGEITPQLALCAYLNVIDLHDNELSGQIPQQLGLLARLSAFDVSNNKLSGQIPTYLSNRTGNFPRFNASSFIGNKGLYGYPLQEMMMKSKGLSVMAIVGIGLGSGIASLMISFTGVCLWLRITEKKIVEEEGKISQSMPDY

[2] = target: T2, RECEPTOR-LIKE PROTEIN 44 (RLP44) fused to RFP, expressed from 35S:RLP44-RFP in plants (Arabidopsis) (UniProt Q9M2Y3); test: co-IP
T2 sequence: T1 sequence

[3] = target: T3, BRI1-ASSOCIATED RECEPTOR KINASE 1 (BAK1), split-ubiquitin fusion in yeast (Arabidopsis) (UniProt Q94F62); test: two-hybrid
T3 sequence: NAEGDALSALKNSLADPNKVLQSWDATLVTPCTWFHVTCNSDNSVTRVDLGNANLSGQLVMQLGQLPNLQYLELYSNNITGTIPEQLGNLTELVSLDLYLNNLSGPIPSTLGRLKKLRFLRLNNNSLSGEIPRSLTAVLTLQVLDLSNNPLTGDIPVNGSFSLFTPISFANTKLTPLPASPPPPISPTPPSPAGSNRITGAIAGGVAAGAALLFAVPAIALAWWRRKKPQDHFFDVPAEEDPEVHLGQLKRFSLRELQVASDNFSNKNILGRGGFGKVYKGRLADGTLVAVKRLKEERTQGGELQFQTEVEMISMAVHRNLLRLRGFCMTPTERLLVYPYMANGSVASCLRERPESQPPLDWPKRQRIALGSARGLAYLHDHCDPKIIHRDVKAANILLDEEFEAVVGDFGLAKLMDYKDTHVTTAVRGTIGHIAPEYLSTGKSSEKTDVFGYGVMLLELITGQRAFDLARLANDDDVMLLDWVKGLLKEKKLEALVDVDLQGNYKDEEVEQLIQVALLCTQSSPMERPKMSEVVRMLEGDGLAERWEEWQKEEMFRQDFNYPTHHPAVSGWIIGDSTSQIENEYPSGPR

[4] = target: T1, RLP44, split-ubiquitin fusion in yeast (Arabidopsis); test: two-hybrid; remark: listed apart in the source

binding [1]: binds
Molecule: BRI1cnu3 (BRI1 R769W), Nub fusion in yeast (from UniProt O22476 24-1196) (receptor)

binding [2]: binds
Molecule: BRASSINOSTEROID … 1 (BRI1), wild type, in Col-0 plants (from UniProt O22476 24-1196) (receptor)

binding [3]: binds
binding [1]: binds
Molecule: BRI1cnu4 (BRI1 G746S), Nub fusion in yeast (from UniProt O22476 24-1196) (receptor)

binding [1]: binds
Molecule: BRI1, wild type, split-ubiquitin fusion in yeast (from UniProt O22476 24-1196) (receptor)

binding [2]: binds
Molecule: BRI1cnu4 (BRI1 G746S), in bri1cnu4 mutant plants (from UniProt O22476 24-1196) (receptor)

binding [4]: binds
B1: BRI1-ASSOCIATED RECEPTOR KINASE 1 (BAK1), split-ubiquitin fusion in yeast (receptor, UniProt Q94F62 26-615)
chain: T3 sequence
